For the assay, the target named is PrP-CFP (mouse PrP(23-231) fused to CFP) (mouse) (UniProt P04925). As to the kind of experiment: semi-denaturing detergent agarose gel electrophoresis (SDD-AGE).

Results are given in words; binding and its absence hold for the method and conditions named. Some entries that bind do so weakly or less than the wild type.

Take “PrP-CFP (mouse PrP(23-231) fused to CFP) (from UniProt P04925 23-231) (domain or fragment)”: the binding entry is on record as “binds”.

The values are drawn from article PMC10531723.
